Measurements published in patent publication US12435294B2, “Prevention of the oxidation of perfumery raw materials and food raw materials” (Firmenich SA, priority 2018, dated 2025).
At least one structure is not confirmed: it was looked up by name or label, or the drawing left a doubt.

Assay: Stabilization of eau de toilette: acetaldehyde diethyl acetal by gas chromatography after 2 months at 45° C.
Settings: for Concentration in ppm of acetaldehyde diethyl acetal detected by gas chromatography in EDT: after 2 months at 45° C.

## Cc1cc(C(C)(C)C)c(O)c(C(C)(C)C)c1 [BHT, butylhydroxytoluene]
0.005% antioxidant in EDT
  Concentration in ppm of acetaldehyde diethyl acetal detected by gas chromatography in EDT: 89 ppm
0.010% antioxidant in EDT
  Concentration in ppm of acetaldehyde diethyl acetal detected by gas chromatography in EDT: 71 ppm
0.025% antioxidant in EDT
  Concentration in ppm of acetaldehyde diethyl acetal detected by gas chromatography in EDT: 85 ppm
0.025% in EDT, 2 months at 45° C., EDT without additive 150 ppm
  concentration of acetaldehyde diethyl acetal: 85 ppm
